Laboratory results reported in PubChem BioAssay AID1487 (National Center for Advancing Translational Sciences (NCATS), 2009).
Values joined by “and” are separate entries in the source; they are usually repeats but may differ in a detail not shown here. Equal entries are not always repeated. This is one part of the list. Shown are side measurements of this screen, not its main read-out; they come without a call. Most of these compounds were active or inconclusive in the main read-out, so they are no random draw. Words in brackets tell the shape of the fitted curve; partial curves, single points and poor fits give uncertain potencies.

Experiment: qHTS Assay for Modulators of Lamin A Splicing
Conditions: HeLa LMNA splicing GFP/RFP minigene ratio, 48 h
Procedure, shortened: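 S3 HeLa stable clones carrying a lamin A-EGFP splicing minigene plus DsRed2 were seeded at 600 cells/well in Opti-MEM with 2% FBS, pin-dosed and incubated 48 h at 37°C. Acumen cytometry (488 nm) gave the GFP/RFP total-intensity ratio.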

[1] = measured here: RFP viability control channel
[2] = measured here: GFP splicing reporter channel

| SMILES | AC50 [1] | AC50 [2] |
| --- | --- | --- |
| CC(C)(C)c1ccc(OCC(=O)NCC2(N3CCOCC3)CCCCC2)cc1 | 7.08 µM [rising, partial curve] | – |
| Cc1cc(Cl)ccc1N(CC(=O)NCCSCc1ccco1)S(C)(=O)=O | 5.62 µM [rising, single point] | 4.47 µM [rising, partial curve] |
| C[n+]1cc2c3c(ccc2c2ccc4cc5c(cc4c21)OCO5)OCO3 | 398 nM [falling, full curve, poor fit] and 2.82 µM [falling, full curve] | 3.16 µM [falling, full curve] and 2.51 µM [falling, full curve] |
| COc1ccc(-c2cn3nc(N4CCC(C(=O)Nc5cc(Cl)ccc5C)CC4)sc3n2)cc1 | – | 0.0891 µM [falling, full curve, poor fit] |
| O=C(Cn1cnc2c(cnn2-c2ccc(Cl)cc2)c1=O)NCCc1ccccc1 | 3.16 µM [rising, single point] | – |
| CC(=O)N1CCN(CC(=O)Nc2ccccc2Sc2ccc(Cl)cc2)CC1 | 35.5 µM [rising, single point] | – |
| CCNC(=O)CC1C(=O)N(c2ccc(F)cc2)C(=O)N1CCc1sccc1C (stereo not drawn) | – | 1.26 µM [rising, single point] |
| Cc1ccc(C)c(NC(=S)N(Cc2cccc(Br)c2)CC2CCC(C(=O)O)CC2)c1 (stereo not drawn) | 4.47 µM [rising, partial curve] | – |
| CN(C)C(=O)c1cc2cc(Br)ccc2s1 | 5.01 µM [rising, single point] | 5.62 µM [rising, partial curve] |
| CC(C)n1nc(C(=O)Nc2ccccc2N2CCOCC2)c2ccccc2c1=O | – | 3.98 µM [rising, full curve, poor fit] |
| S=C(NCc1ccccc1)Nc1cccc(Cl)c1 | 35.5 µM [rising, single point] | – |
| Cc1ccc(NC(=O)Nc2ccccc2CC[N+](=O)[O-])cc1 | – | 0.01 µM [falling, full curve] |
| Cc1cc(C)cc(NC(=O)c2ccc([N+](=O)[O-])o2)c1 | 35.5 µM [falling, single point] | – |
| CC1CCN(c2ncnc3c2c(-c2ccccc2)cn3-c2ccc(Br)cc2)CC1 | – | 0.316 µM [falling, partial curve, poor fit] |
| Cn1c(NC(=O)c2ccccc2)c(-c2cccs2)c(=O)c2ccccc21 | 15.8 µM [rising, single point] | – |
| O=C(Nc1ccc(Oc2ccc3ccccc3c2)cc1)c1ccco1 | 25.1 µM [rising, single point] | 25.1 µM [rising, single point] |
| CCc1ccc(-n2c(=O)c3c(C)c(C(=O)N(C)C)sc3n(CC(=O)NCC3CCCO3)c2=O)cc1 (stereo not drawn) | – | 17.8 µM [rising, single point] |
| CC(NC(=O)OCc1ccccc1)C(=O)N1CC(O)CC1C(=O)O (stereo not drawn) | 12.6 µM [falling, partial curve] | 11.2 µM [falling, partial curve, poor fit] |

Some of the entries so far, tab-delimited.
SMILES	AC50 [1]	AC50 [2]
Cn1c(NC(=O)c2ccccc2)c(-c2cccs2)c(=O)c2ccccc21	15.8 µM [rising, single point]	–
O=C(Nc1ccc(Oc2ccc3ccccc3c2)cc1)c1ccco1	25.1 µM [rising, single point]	25.1 µM [rising, single point]
CCc1ccc(-n2c(=O)c3c(C)c(C(=O)N(C)C)sc3n(CC(=O)NCC3CCCO3)c2=O)cc1 (stereo not drawn)	–	17.8 µM [rising, single point]

The list goes on:

| SMILES | AC50 [1] | AC50 [2] |
| --- | --- | --- |
| COc1ccc(C(=O)/C=C/C(=O)N(Cc2ccc3c(c2)OCO3)C(C(=O)NC2CCCCC2)c2ccncc2)c(O)c1 (stereo not drawn) | – | 35.5 µM [falling, single point] |
| COc1ccc(NCc2nc3ccccc3n2CCOc2ccc(C)cc2)cc1 | 10 µM [rising, partial curve] | – |
| C=CCn1c(=O)c2c(nc3n2CCN3c2cccc(Cl)c2C)n(C)c1=O | 14.1 µM [rising, single point] | 11.2 µM [rising, single point] |
| CC(C)n1cc(NC(=O)c2cc(-c3ccccc3)on2)cn1 | 3.55 µM [rising, single point] | – |
| Nc1ccc(Oc2ccc3nc(-c4ccccc4)c(-c4ccccc4)nc3c2)cc1 | 11.2 µM [falling, partial curve] | 12.6 µM [falling, single point] |
| CC1CCN(C(=O)Nc2cccc(NC(=O)N3CCC(C)CC3)c2)CC1 | 35.5 µM [rising, single point] | – |
| O=C1CCc2ccc(NC(=O)C3CC3)cc2N1 | – | 0.708 µM [rising, single point] |
| COc1ccccc1NC(=O)C1=C(C)NC2=C(C(=O)CC(c3ccc(OC)c(OC)c3)C2)C1c1coc2ccccc2c1=O (stereo not drawn) | 22.4 µM [rising, single point] | 12.6 µM [rising, single point] |
| COc1ccccc1-c1cncnc1NCCN1CCOCC1 | 20 µM [falling, partial curve] | 12.6 µM [falling, single point] |
| CC(=O)N1CCCc2cc(S(=O)(=O)NCCC3=CCCCC3)ccc21 | 7.94 µM [rising, partial curve] | – |
| CN1CCN(c2ccc(NC(=O)c3ccc4c(c3)OCCO4)cc2Cl)CC1 | – | 4.47 µM [falling, full curve] |
| COc1cc(CN2CCNC(=O)C2CC(=O)NCCC2=CCCCC2)cc(OC)c1 (stereo not drawn) | 0.0355 µM [rising, full curve, poor fit] | 0.0447 µM [rising, full curve, poor fit] |
| CC(C)CCNC(=O)NC(=O)COC(=O)CNC(=O)C1CCCCC1 | 0.00316 µM [falling, full curve] | – |
| CN(C)c1nc2ccccc2c(N)c1-c1ccccc1 | 3.98 µM [rising, full curve] | – |
| COc1ccc(-n2nc(C(=O)NCC(=O)NCc3ccc(F)cc3)c3ccccc3c2=O)c(OC)c1 | 35.5 µM [falling, single point] | 35.5 µM [falling, single point] |
| O=C(NC1=NCCS1)C1CC(=O)N(c2ccc(Cl)cc2)C1 (stereo not drawn) | – | 0.0891 µM [falling, full curve, poor fit] |
| Cc1ccc(Cl)cc1N1CCN(C(=S)NCCc2ccccc2)CC1 | 10 µM [rising, partial curve] | – |
| CCCc1nn(C)c(C(=O)Nc2cccc3ccccc23)c1Cl | 20 µM [rising, partial curve] | 15.8 µM [rising, partial curve] |
